Results are given in words; binding and its absence hold for the method and conditions named. Binding seen in cells or lysates may run through a third protein. Some entries that bind do so weakly or less than the wild type. For some of these results: Sequences can lack the tags named with a protein.
T1: Tfcp2l1 (transcription factor CP2‐like protein 1), endogenous in mESCs (mouse (endogenous in mESCs)) (UniProt Q3UNW5)
T1 sequence: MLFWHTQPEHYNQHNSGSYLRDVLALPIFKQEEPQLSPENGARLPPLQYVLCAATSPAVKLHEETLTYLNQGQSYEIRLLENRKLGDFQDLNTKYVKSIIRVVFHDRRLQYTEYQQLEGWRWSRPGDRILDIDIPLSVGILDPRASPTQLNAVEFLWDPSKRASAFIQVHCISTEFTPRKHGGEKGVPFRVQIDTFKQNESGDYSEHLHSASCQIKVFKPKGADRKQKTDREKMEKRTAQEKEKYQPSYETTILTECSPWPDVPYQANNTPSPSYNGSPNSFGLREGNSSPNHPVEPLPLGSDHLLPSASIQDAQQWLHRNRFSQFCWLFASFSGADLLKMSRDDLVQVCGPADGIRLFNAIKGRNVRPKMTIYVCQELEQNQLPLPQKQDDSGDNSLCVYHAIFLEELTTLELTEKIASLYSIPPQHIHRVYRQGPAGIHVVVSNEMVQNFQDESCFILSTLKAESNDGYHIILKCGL

Sequences of proteins named here, by UniProt entry; tags and fusion partners are left off.
UniProt P11440: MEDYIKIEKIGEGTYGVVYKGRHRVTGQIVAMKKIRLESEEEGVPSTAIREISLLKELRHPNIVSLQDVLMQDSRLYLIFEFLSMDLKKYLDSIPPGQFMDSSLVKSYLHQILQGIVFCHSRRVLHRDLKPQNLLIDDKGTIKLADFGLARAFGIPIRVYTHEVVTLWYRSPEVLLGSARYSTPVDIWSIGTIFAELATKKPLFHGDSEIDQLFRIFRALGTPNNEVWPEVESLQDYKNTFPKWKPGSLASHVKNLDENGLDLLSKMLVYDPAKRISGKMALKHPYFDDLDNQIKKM
UniProt Q9WTM5: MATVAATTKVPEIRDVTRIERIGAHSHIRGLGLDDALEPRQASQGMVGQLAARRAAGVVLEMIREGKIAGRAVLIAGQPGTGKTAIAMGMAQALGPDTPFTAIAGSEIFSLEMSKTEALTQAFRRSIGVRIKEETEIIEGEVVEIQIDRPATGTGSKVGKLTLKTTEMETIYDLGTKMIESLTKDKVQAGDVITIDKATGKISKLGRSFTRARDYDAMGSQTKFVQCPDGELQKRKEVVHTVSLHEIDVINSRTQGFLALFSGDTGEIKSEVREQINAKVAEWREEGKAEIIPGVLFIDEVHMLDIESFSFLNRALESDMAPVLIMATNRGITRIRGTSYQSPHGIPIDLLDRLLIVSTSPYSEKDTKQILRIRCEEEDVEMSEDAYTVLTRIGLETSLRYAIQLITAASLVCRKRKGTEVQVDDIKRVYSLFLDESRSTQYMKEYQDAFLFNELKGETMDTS
UniProt P48432: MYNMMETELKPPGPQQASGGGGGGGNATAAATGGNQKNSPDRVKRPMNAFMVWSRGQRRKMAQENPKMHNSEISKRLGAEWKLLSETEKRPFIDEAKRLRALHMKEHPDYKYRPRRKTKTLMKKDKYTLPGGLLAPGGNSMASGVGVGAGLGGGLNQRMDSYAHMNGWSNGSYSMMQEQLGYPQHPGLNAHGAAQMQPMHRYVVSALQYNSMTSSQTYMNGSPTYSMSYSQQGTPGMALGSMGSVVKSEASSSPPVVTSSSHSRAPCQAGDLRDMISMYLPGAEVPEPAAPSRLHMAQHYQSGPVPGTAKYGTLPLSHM
UniProt Q8CHK4: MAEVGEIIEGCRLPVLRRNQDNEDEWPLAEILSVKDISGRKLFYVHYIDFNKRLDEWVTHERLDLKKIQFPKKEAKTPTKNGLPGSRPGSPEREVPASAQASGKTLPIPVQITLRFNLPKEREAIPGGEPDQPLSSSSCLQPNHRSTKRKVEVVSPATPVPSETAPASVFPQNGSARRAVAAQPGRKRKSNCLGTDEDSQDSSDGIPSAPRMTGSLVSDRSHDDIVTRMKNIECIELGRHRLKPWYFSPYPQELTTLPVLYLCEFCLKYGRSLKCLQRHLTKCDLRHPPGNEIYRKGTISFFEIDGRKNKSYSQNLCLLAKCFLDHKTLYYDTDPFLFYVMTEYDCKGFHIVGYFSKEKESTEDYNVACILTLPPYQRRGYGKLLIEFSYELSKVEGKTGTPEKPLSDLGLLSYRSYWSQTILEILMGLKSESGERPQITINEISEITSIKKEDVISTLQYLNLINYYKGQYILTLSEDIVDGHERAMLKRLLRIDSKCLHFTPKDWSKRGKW
UniProt Q9JI44: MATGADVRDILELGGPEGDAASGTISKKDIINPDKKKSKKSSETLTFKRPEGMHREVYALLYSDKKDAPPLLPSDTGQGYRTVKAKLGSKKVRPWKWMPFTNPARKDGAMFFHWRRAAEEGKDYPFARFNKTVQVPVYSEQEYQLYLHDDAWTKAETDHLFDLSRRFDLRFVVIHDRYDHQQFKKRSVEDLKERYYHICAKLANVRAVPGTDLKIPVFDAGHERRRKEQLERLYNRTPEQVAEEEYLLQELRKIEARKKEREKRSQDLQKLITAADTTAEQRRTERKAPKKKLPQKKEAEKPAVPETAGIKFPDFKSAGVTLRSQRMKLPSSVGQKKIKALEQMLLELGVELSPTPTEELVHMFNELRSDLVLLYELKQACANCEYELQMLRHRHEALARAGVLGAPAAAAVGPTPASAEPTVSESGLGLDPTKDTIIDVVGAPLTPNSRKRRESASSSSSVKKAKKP

T2: FLAG‐tagged Tfcp2l1 (transcription factor CP2‐like protein 1), murine (mouse) (UniProt Q3UNW5)
T2 sequence: T1 sequence

B1: homeobox protein NANOG (Nanog) (protein, UniProt Q80Z64 1-305)
chain: MSVGLPGPHSLPSSEEASNSGNASSMPAVFHPENYSCLQGSATEMLCTEAASPRPSSEDLPLQGSPDSSTSPKQKLSSPEADKGPEEEENKVLARKQKMRTVFSQAQLCALKDRFQKQKYLSLQQMQELSSILNLSYKQVKTWFQNQRMKCKRWQKNQWLKTSNGLIQKGSAPVEYPSIHCSYPQGYLVNASGSLSMWGSQTWTNPTWSSQTWTNPTWNNQTWTNPTWSSQAWTAQSWNGQPWNAAPLHNFGEDFLQPYVQLQQNFSASDLEVNLEATRESHAHFSTPQALELFLNYSVTPPGEI

Biological target: T1, Tfcp2l1 (transcription factor CP2‐like protein 1), endogenous in mESCs (mouse (endogenous in mESCs))
Assay: co-IP; immunoprecipitation of endogenous proteins from mESC extracts; IP lysis buffer 50 mM Tris–Cl pH 7.4, 0.5% NP‐40, 150 mM NaCl

binding, binds:
cyclin‐dependent kinase 1 (CDK1), in mESCs (from UniProt P11440 1-297) (enzyme)

Biological target: T2, FLAG‐tagged Tfcp2l1 (transcription factor CP2‐like protein 1), murine (mouse)
Assay: co-IP; anti‐FLAG immunoprecipitation from extracts of mESCs stably expressing Flag‐Tfcp2l1 (control: Flag only); co-precipitated proteins detected with specific antibodies; IP lysis buffer 50 mM Tris–Cl pH 7.4, 0.5% NP‐40, 150 mM NaCl

binding, binds:
RuvB‐like 2 (Ruvbl2) (from UniProt Q9WTM5 1-463)
SRY‐box2 (SOX‐2) (from UniProt P48432 1-319)
histone acetyltransferase KAT5 (Tip60) (from UniProt Q8CHK4 1-513) (enzyme)
cyclin‐dependent kinase 1 (CDK1), in mESCs (from UniProt P11440 1-297) (enzyme)
DNA methyltransferase 1‐associated protein 1 (DNMAP‐1) (from UniProt Q9JI44 1-468)
B1

Source: article PMC6949511
